PubChem BioAssay AID504847 (National Center for Advancing Translational Sciences (NCATS), 2011)
Out of some 400,000 compounds screened, about 3,700 (0.93%) were called active. The shares of active, inactive and inconclusive entries below differ from those in the screen. Calls follow the shape of the dose curve; as a rule, active = well fitted inhibition curve with a large enough effect; inconclusive = small, poorly fitted or top-dose-only effect, or another doubt; inactive = no such curve, though single readings can be large or run the other way. Potencies beside an inconclusive call are fits to weak or partial responses and may not hold up.

Sequences of proteins named here, by UniProt entry; tags and fusion partners are left off.
UniProt P11473, whole entry, looked up: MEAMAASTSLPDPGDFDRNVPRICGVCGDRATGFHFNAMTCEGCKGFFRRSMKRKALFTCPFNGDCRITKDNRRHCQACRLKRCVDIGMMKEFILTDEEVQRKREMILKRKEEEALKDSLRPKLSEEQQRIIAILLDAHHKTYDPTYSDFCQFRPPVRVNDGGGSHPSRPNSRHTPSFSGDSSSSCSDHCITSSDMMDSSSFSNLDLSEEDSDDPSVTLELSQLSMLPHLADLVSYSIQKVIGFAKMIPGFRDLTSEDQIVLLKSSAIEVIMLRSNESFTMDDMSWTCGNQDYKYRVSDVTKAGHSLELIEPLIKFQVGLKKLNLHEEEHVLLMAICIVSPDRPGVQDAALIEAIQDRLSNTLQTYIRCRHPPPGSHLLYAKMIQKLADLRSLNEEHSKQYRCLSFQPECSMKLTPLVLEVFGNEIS

biological target: Vitamin D3 receptor (Homo sapiens) (UniProt P11473); experiment: Inhibitors of the vitamin D receptor (VDR): qHTS; conditions: VDR-SRC2-3 peptide fluorescence polarization, 2 h; max response, negative = inhibition: active compounds read low
Method in brief: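 The screen uses fluorescence polarization to detect compounds that interfere with recruitment of the SRC2-3 coactivator peptide to VDR; plates are read after 2 h at room temperature.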
% is scaled to controls: 0 for no effect and ±100 for the full control effect; potency is read from the fitted curve at half-maximal effect.

Max response, negative = inhibition, inactive:
CN1CCN(Cc2c(O)ccc3cc(-c4ccccc4)c(=O)oc23)CC1 12.3%
O=C(NCc1ccco1)c1cc(-c2ccccc2)on1 -13.3%
NC(=O)CC[C@@H]1NC(=O)[C@H](CO)NC(=O)c2cc([N+](=O)[O-])cc(I)c2NCCCC[C@@H](C(N)=O)NC(=O)[C@H](Cc2ccc(O)cc2)NC1=O -14%
Nc1nnc(SCC(=O)N2CCN(c3ccccc3)CC2)s1 -17.9%
CC(=O)c1cccc(NC(=O)Cn2c(=O)oc3cc(S(=O)(=O)NC4CCCC4)ccc32)c1 0.364%
Nc1nonc1-c1nc2ccccc2n1CC(=O)N/N=C/c1ccc(-c2cccc(C(=O)O)c2)o1 10.2%
CC(=O)Oc1ccc(C(=O)Nc2cccc(-c3nnc(-c4ccco4)o3)c2)cc1 18.4%
CC(=O)N1N=C2c3ccccc3CCC2C1c1ccc(F)cc1 (stereo not drawn) 2.04%
COC(=O)c1ccc(CSc2ccc3nnc(-c4cccc(F)c4)n3n2)o1 -29.4%
Cc1cc(C(C)(C)C)ccc1OCCCCN1CCCC1 0.622%
CC(C)OC(=O)C(C#N)c1nc2ccccc2nc1N1CCCC1 (stereo not drawn) -3.17%
COc1ccc(CCCn2ncc3c2nc(N)n2nc(-c4ccco4)nc32)cc1 -3.6%
Cc1ccc(/C=C/C(=O)OCC(=O)NCc2cccs2)o1 -7.58%
CN(C)c1ccc(NC(=O)CSc2nc3ccccc3c(=O)n2C2CCCCC2)cc1 -6.22%
C=CCc1ccccc1OCCn1c(C2CC(=O)N(Cc3ccc(F)cc3)C2)nc2ccccc21 (stereo not drawn) 8.53%
O=C(N/N=C/c1c(O)ccc2ccccc12)Nc1ccccc1 -15.1%
O=[N+]([O-])c1cc(CN2CCCC2)c2cccnc2c1O 14.4%
O=C(CN1CCN(c2ccc(O)cc2)CC1)Nc1cc([N+](=O)[O-])ccc1Cl 6.48%
CCOc1ccc(-c2nonc2NC(=O)c2oc3ccc(Br)cc3c2C)cc1 -0.241%
CCn1cc(C(=O)NCCCN(C)C)c(=O)c2cc(F)c(N3CCN(C)CC3)cc21 -6.2%
CN(c1ccc(C(=O)NCCSCc2ccc(Cl)cc2)cc1)S(=O)(=O)c1ccccc1 -4.48%
CC(=O)N1N=C(c2ccc3ccccc3c2)OC1(C)C 2.48%

Potency, inconclusive:
COc1ccc(S(=O)(=O)CCC(=O)NCc2ccc(C)o2)cc1 79.4 µM [inhibitor, single point]
O=C(Cc1nc2ccccc2[nH]1)N/N=C/c1ccccc1 11.2 µM [inhibitor, partial curve]
O=C(O)c1ccc(N2CC3CC(C2)c2cccc(=O)n2C3)c(NC(=S)Nc2ccc(Cl)cc2Cl)c1 (stereo not drawn) 56.2 µM [inhibitor, partial curve, poor fit]
COc1ccc(/C=N/NC(=O)C(O)(c2ccccc2)c2ccccc2)cc1OC 44.7 µM [inhibitor, full curve, poor fit]
CCNc1ncc2nc(CCc3ccccc3)c(=O)n(CCC#N)c2n1 79.4 µM [inhibitor, single point]
O=C(c1ccccc1Sc1ccc([N+](=O)[O-])cc1)N1CCCCC1 100 µM [inhibitor, partial curve, poor fit]
CCN1C(=O)C(CC(=O)NCCc2ccccc2)N(NC(=O)c2cccnc2)C1=S (stereo not drawn) 70.8 µM [inhibitor, single point]
COC(=O)c1ccc(N/C=C\C(=O)c2ccc3c(c2)OCO3)cc1 100 µM [inhibitor, single point]
O=C1C=C(c2ccccc2)C(=O)N1Nc1ccccc1 39.8 µM [inhibitor, partial curve, poor fit]
Cc1ccc2nc(N3C(=O)C(O)=C(C(=O)c4ccc(C)o4)C3c3cccc(O)c3)sc2c1 (stereo not drawn) 79.4 µM [inhibitor, single point]
Cc1cnc(NC(=O)CCN2C(=O)C3CCCCC3C2=O)s1 (stereo not drawn) 89.1 µM [inhibitor, single point]
Cc1ccccc1N1CC(C(=O)Nc2nnc(SCCC3OCCO3)s2)CC1=O (stereo not drawn) 89.1 µM [inhibitor, single point]
COc1ccc2c(c1)C1NC(=S)NC(C)(O2)C1C(=O)Nc1ccc(C)cc1C (stereo not drawn) 100 µM [inhibitor, single point]
CC(C)N1CC(C(=O)Nc2ccc(C#N)cc2)CC1=O (stereo not drawn) 89.1 µM [inhibitor, partial curve, poor fit]
CC[C@]1(c2ccccc2OC)C(=O)N(C(=O)OC)N1C(=O)OC 89.1 µM [inhibitor, partial curve, poor fit]
O=C(Nc1c(O)c2ccccc2oc1=O)c1cccc(F)c1 1.58 µM [inhibitor, partial curve, poor fit]
O=c1c(C(c2c(O)nc3n(c2=O)CCS3)c2cccc3ccccc23)c(O)nc2n1CCS2 22.4 µM [inhibitor, partial curve]
C#CCCc1cscc1/C=[N+](\[O-])c1ccc(C(=O)OCC)cc1 56.2 µM [inhibitor, partial curve, poor fit]
CCOc1cc(/C=C2/C(=N)N3C(=NC2=O)SN=C3S(=O)(=O)C(C)C)ccc1OC(=O)c1ccco1 70.8 µM [inhibitor, partial curve, poor fit]
O=C1NN(c2cccc(Br)c2)C(=O)/C1=C/c1cccs1 79.4 µM [inhibitor, partial curve, poor fit]
Cc1sc(NC(=O)C2CCCC2)c(C#N)c1C 100 µM [inhibitor, single point]
COc1cc(S(=O)(=O)NCc2ccccn2)ccc1Cl 50.1 µM [inhibitor, partial curve, poor fit]
Cc1ccc(CNC(=O)C2(C(F)(F)F)C/C(=C\Cc3ccccc3)CCCO2)o1 (stereo not drawn) 79.4 µM [inhibitor, partial curve, poor fit]
CCN1C(=O)/C(=C\C=C2/C=CC=CN2CC)SC1=S 89.1 µM [inhibitor, single point]
CCOc1ccc(/C=C2/C(=N)N3OC(C)=CC3=NC2=O)cc1OC 20 µM [inhibitor, single point]
O=C(CN1C(=O)/C(=C2/SC(=S)N(CCS(=O)(=O)O)C2=O)c2ccccc21)Nc1cccc(Br)c1 63.1 µM [inhibitor, partial curve, poor fit]
CCOC(=O)c1[nH]c(C)c(C(=O)Nc2ccccc2F)c1C 70.8 µM [inhibitor, partial curve]
Cn1c(=O)c2c(nc(N3CCCCCC3)n2CC(O)COc2ccccc2)n(C)c1=O (stereo not drawn) 3.55 µM [inhibitor, partial curve, poor fit]
COC(=O)c1nnn(CC(=O)NC(=O)Nc2cccc(C)c2C)c1C(=O)OC 44.7 µM [inhibitor, partial curve, poor fit]
Nc1nc2c([nH]c(=S)n2C2OC(CO)C(O)C2O)c(=O)[nH]1 (stereo not drawn) 100 µM [inhibitor, partial curve, poor fit]
CCn1cc(C(=O)N2CCN(c3cccc(C(F)(F)F)c3)CC2)c2cc(OC)c(OC)cc2c1=O 89.1 µM [inhibitor, single point]
CCN(CC)CCSc1nc2ccccc2n1Cc1ccccc1 79.4 µM [inhibitor, partial curve, poor fit]
Cc1cc(C)nc(N/N=C/c2sccc2C)n1 39.8 µM [inhibitor, single point]
CC(=O)NC1C(=O)N(CCN2CCOCC2)c2ccc(F)cc21 (stereo not drawn) 100 µM [inhibitor, single point]
COc1ccccc1/C=C1\CCCC2=C1Nc1nnnn1C2c1ccccc1OC (stereo not drawn) 50.1 µM [inhibitor, partial curve, poor fit]
Cc1ccccc1NC(=O)C1CCN(c2cc(-c3ccccc3)nc3ncnn23)CC1 0.708 µM [inhibitor, full curve, poor fit]

No new results follow: an excerpt of the list.
Potency, inconclusive:
Cc1sc(NC(=O)C2CCCC2)c(C#N)c1C 100 µM [inhibitor, single point]
COc1cc(S(=O)(=O)NCc2ccccn2)ccc1Cl 50.1 µM [inhibitor, partial curve, poor fit]
Cc1ccc(CNC(=O)C2(C(F)(F)F)C/C(=C\Cc3ccccc3)CCCO2)o1 (stereo not drawn) 79.4 µM [inhibitor, partial curve, poor fit]

Following part:

Potency, active:
CC(=O)Oc1ccc(N2C(=O)C3C4C=CC(CO)(O4)C3C2=O)cc1 (stereo not drawn) 44.7 µM
COc1cc(CN2CCc3c([nH]c4ccccc34)C2)cc(OC)c1 50.1 µM
CC(=O)Nc1n[nH]c(=S)s1 50.1 µM
CCOc1ccc(S(=O)(=O)N(C(=O)c2ccco2)c2cc3sc(=O)oc3c3ccccc23)cc1 31.6 µM
CCOC(=O)c1ccc(S(=O)(=O)Nc2cc(S(=O)(=O)N3CCOCC3)ccc2O)cc1 44.7 µM
O=S(=O)(/N=C(/Sc1ccc(Cl)cc1)c1ccccc1)c1ccccc1 35.5 µM
Oc1c(Cl)cc(Cl)c2c1NCCC2 31.6 µM
COc1ccc(/C=C(/C(=O)c2ccc(Cl)cc2Cl)n2cncn2)cc1 56.2 µM
COc1ccc(Cl)cc1NC(=O)CCS(=O)(=O)c1nc(-c2cccs2)cc(C(F)(F)F)n1 20 µM
O=C(Oc1ccc(Br)cc1C(=S)N1CCOCC1)c1ccc(F)cc1 79.4 µM
